# Results deposited as PubChem BioAssay AID1259254 (NCATS, 2017).
# Purpose: 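Finding genes that stop cells copying their DNA twice in one cycle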 (primary screen)
# Cell system: human HCT116 colorectal cancer cells
# Knock-down reagent: single siRNA against human genes
# Timing: 3 days
# Measurement: 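Imaged Hoechst DNA stain sorts each cell into a cycle phase by DNA amount; per plate, G2 fraction set to 0% for non-targeting and 100% for GMNN siRNA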
# Direction: G2 robust z-score and G2 cells, % of GMNN control: higher = more G2 cells, more excess DNA replication; raw share of cells in G2: higher = larger share of cells with G2 DNA content
# Call rule: 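An siRNA counts as active if its G2 robust z-score lies at least 5 MADs above the screen median; here such calls match roughly 38% of GMNN control or more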
# In all, the deposit lists about 59,000 reagents; below is a random part of them. In the full data, about 1,550 (2.6%) got an active call. 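G2 share is only a proxy for re-replication; each gene was hit by three separate siRNAs, and active genes were retested.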 The raw values are shown without normalisation. Reagents against one gene are numbered here. Reagent sequences are not shown. Not given: the amount of reagent.
gene knocked down,reagent no.,G2 robust z-score,"G2 cells, % of GMNN control",raw share of cells in G2 (%),outcome
GRIK3,1,1.92,16.5,11.3,inactive
GRIK3,2,-0.845,-2.97,3.78,inactive
GRIK3,3,1.1,10.7,8.55,inactive
RCE1,1,-0.959,-3.78,4.24,inactive
RCE1,2,-1.28,-6,1.67,inactive
RCE1,3,3.15,25.1,13.8,inactive
MCCC1,1,-1.15,-5.14,4.18,inactive
MCCC1,2,6.74,50.4,22.5,active
MCCC1,3,0.456,6.18,6.91,inactive
BATF,1,-0.604,-1.28,3.1,inactive
BATF,2,-1.39,-6.79,2.96,inactive
BATF,3,-0.431,-0.0616,3.31,inactive
SMR3A,1,-0.0743,2.44,5.47,inactive
SMR3A,2,2.73,22.2,10.3,inactive
SMR3A,3,0.666,7.65,6.78,inactive
TOGARAM1,1,-0.206,1.52,5.58,inactive
TOGARAM1,2,2.39,19.8,12.3,inactive
TOGARAM1,3,-0.397,0.174,3.24,inactive
CAMKV,1,0.813,8.69,8.29,inactive
CAMKV,2,-0.0164,2.85,6.23,inactive
CAMKV,3,1.58,14.1,8.2,inactive
OR5AR1,1,-0.522,-0.706,3.32,inactive
OR5AR1,2,-0.333,0.625,3.34,inactive
OR5AR1,3,0.779,8.45,5.89,inactive
PAQR9,1,0.744,8.2,9.45,inactive
PAQR9,2,-0.808,-2.72,3.9,inactive
PAQR9,3,-0.73,-2.17,3.49,inactive

Next part (4 carried over from the part before).
gene knocked down,reagent no.,G2 robust z-score,"G2 cells, % of GMNN control",raw share of cells in G2 (%),outcome
OR5AR1,3,0.779,8.45,5.89,inactive
PAQR9,1,0.744,8.2,9.45,inactive
PAQR9,2,-0.808,-2.72,3.9,inactive
PAQR9,3,-0.73,-2.17,3.49,inactive
WDR31,1,1.53,13.7,12,inactive
WDR31,2,2.49,20.5,13.8,inactive
WDR31,3,-1.16,-5.16,2.53,inactive
LIFR,1,-0.803,-2.68,2.31,inactive
LIFR,2,-0.837,-2.92,4.31,inactive
LIFR,3,0.0321,3.19,6.59,inactive
FLACC1,1,1,10,7.95,inactive
FLACC1,2,0.397,5.76,4.93,inactive
FLACC1,3,-0.165,1.81,3.24,inactive
OR5M8,1,0.119,3.8,4.96,inactive
OR5M8,2,1.35,12.5,7.4,inactive
OR5M8,3,2.7,22,10.2,inactive
CXCR4,1,0.254,4.76,7.54,inactive
CXCR4,2,0.706,7.94,7.29,inactive
CXCR4,3,-0.625,-1.43,2.83,inactive
SERP2,1,6.04,45.5,24.1,active
SERP2,2,-0.187,1.65,4.34,inactive
SERP2,3,-0.796,-2.63,2.26,inactive
AS3MT,1,-0.439,-0.123,5.6,inactive
AS3MT,2,0.542,6.78,6.75,inactive
AS3MT,3,-1.13,-5.01,2.41,inactive
GAMT,1,-1.13,-4.95,3.44,inactive
GAMT,2,-0.573,-1.06,4.86,inactive
GAMT,3,0.629,7.39,6.29,inactive
METTL13,1,0.916,9.41,6.97,inactive
METTL13,2,1.62,14.4,10.3,inactive
METTL13,3,-0.426,-0.0333,3.18,inactive
RNASEH2B,1,1.02,10.1,9,inactive
RNASEH2B,2,0.317,5.2,6.94,inactive
RNASEH2B,3,-0.495,-0.515,2.56,inactive
MIR7-3HG,1,-0.573,-1.06,3.25,inactive
MIR7-3HG,2,-0.439,-0.119,3,inactive
MIR7-3HG,3,-0.791,-2.6,2.48,inactive
HERC2,1,1.04,10.3,8.87,inactive
HERC2,2,-0.821,-2.81,3.26,inactive
HERC2,3,-0.561,-0.977,4.36,inactive
EGFL8,1,-0.426,-0.0264,5.9,inactive
EGFL8,2,-0.746,-2.28,1.99,inactive
EGFL8,3,-1.11,-4.86,2.11,inactive
MDGA2,1,-0.74,-2.24,2.8,inactive
MDGA2,2,-0.0503,2.61,3.84,inactive
MDGA2,3,0.472,6.29,4.75,inactive
